Measured values taken from the supplement of paper PMC8728848.
The other results are listed elsewhere or left out.

Key:
Experiment in all cases: glycan array binding signal (z-score within array); higher = stronger binding
Conditions in all cases: glycan notation: IUPAC condensed, linker removed
[1] = target: Gal(b1-3)[Neu5Ac(a2-6)]GalNAc
Outline: (§1)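 Glycan array data came from 3228 arrays in the Consortium for Functional Glycomics database, and only arrays with an available protein sequence were kept. Glycan names were put into IUPAC-condensed notation, and columns mapping to the same glycan were averaged. The binding signal is a within-array Z-score, averaged across arrays of one protein sequence run at different concentrations or buffers and across linkers. A negative Z-score can be read as non-binding.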

[2] = target: Gal(b1-3)[Neu5Ac(a2-6)]GlcNAc(b1-6)Gal(b1-4)Glc
Outline: as §1

[3] = target: Gal(b1-3)[Neu5Ac(b2-6)]GalNAc
Outline: as §1

[4] = target: Gal(b1-4)GalNAc(a1-3)[Fuc(a1-2)]Gal(b1-4)GlcNAc
Outline: as §1

[5] = target: Gal(b1-4)GalNAc(b1-3)[Fuc(a1-2)]Gal(b1-4)GlcNAc
Outline: as §1

Gal(b1-4)Glc = target: Gal(b1-4)Glc
Outline: as §1

Gal(b1-4)Glc6S = target: Gal(b1-4)Glc6S
Outline: as §1

Gal(b1-4)GlcNAc = target: Gal(b1-4)GlcNAc
Outline: as §1

[6] = target: Gal(b1-4)GlcNAc(a1-6)Gal(b1-4)GlcNAc
Outline: as §1

[7] = target: Gal(b1-4)GlcNAc(b1-2)Man(a1-3)Man(b1-4)GlcNAc(b1-4)GlcNAc
Outline: as §1

[8] = target: Gal(b1-4)GlcNAc(b1-2)Man(a1-3)[Gal(b1-4)GlcNAc(b1-2)Man(a1-6)]Man(b1-4)GlcNAc(b1-4)GlcNAc
Outline: as §1

[9] = target: Gal(b1-4)GlcNAc(b1-2)Man(a1-3)[Gal(b1-4)GlcNAc(b1-2)Man(a1-6)]Man(b1-4)GlcNAc(b1-4)[Fuc(a1-6)]GlcNAc
Outline: as §1

[10] = target: Gal(b1-4)GlcNAc(b1-2)Man(a1-3)[GlcNAc(b1-2)Man(a1-6)]Man(b1-4)GlcNAc(b1-4)GlcNAc
Outline: as §1

[11] = target: Gal(b1-4)GlcNAc(b1-2)Man(a1-3)[Man(a1-6)]Man(b1-4)GlcNAc(b1-4)GlcNAc
Outline: as §1

[12] = target: Gal(b1-4)GlcNAc(b1-2)Man(a1-6)Man(b1-4)GlcNAc(b1-4)GlcNAc
Outline: as §1

[13] = target: Gal(b1-4)GlcNAc(b1-2)Man(a1-6)[GlcNAc(b1-2)Man(a1-3)]Man(b1-4)GlcNAc(b1-4)GlcNAc
Outline: as §1

[14] = target: Gal(b1-4)GlcNAc(b1-2)Man(a1-6)[Man(a1-3)]Man(b1-4)GlcNAc(b1-4)GlcNAc
Outline: as §1

[15] = target: Gal(b1-4)GlcNAc(b1-2)[Gal(b1-4)GlcNAc(b1-4)]Man(a1-3)[Gal(b1-4)GlcNAc(b1-2)Man(a1-6)]Man(b1-4)GlcNAc(b1-4)GlcNAc
Outline: as §1

[16] = target: Gal(b1-4)GlcNAc(b1-2)[Gal(b1-4)GlcNAc(b1-4)]Man(a1-3)[Gal(b1-4)GlcNAc(b1-2)[Gal(b1-4)GlcNAc(b1-6)]Man(a1-6)]Man(b1-4)GlcNAc(b1-4)GlcNAc
Outline: as §1

[17] = target: Gal(b1-4)GlcNAc(b1-3)Gal(b1-3)GlcNAc
Outline: as §1

[18] = target: Gal(b1-4)GlcNAc(b1-3)Gal(b1-4)Glc
Outline: as §1

[19] = target: Gal(b1-4)GlcNAc(b1-3)Gal(b1-4)GlcNAc
Outline: as §1

[20] = target: Gal(b1-4)GlcNAc(b1-3)Gal(b1-4)GlcNAc(b1-3)Gal(b1-4)GlcNAc
Outline: as §1

[21] = target: Gal(b1-4)GlcNAc(b1-3)Gal(b1-4)[Fuc(a1-3)]GlcNAc(b1-3)Gal(b1-4)[Fuc(a1-3)]GlcNAc
Outline: as §1

[22] = target: Gal(b1-4)GlcNAc(b1-3)GalNAc
Outline: as §1

[23] = target: Gal(b1-4)GlcNAc(b1-3)[Gal(b1-4)GlcNAc(b1-6)]Gal(b1-4)GlcNAc
Outline: as §1

[24] = target: Gal(b1-4)GlcNAc(b1-3)[Gal(b1-4)GlcNAc(b1-6)]GalNAc
Outline: as §1

[25] = target: Gal(b1-4)GlcNAc(b1-3)[GlcNAc(b1-6)]Gal(b1-4)GlcNAc
Outline: as §1

[26] = target: Gal(b1-4)GlcNAc(b1-6)Gal(b1-4)GlcNAc
Outline: as §1

[27] = target: Gal(b1-4)GlcNAc(b1-6)GalNAc
Outline: as §1

[28] = target: Gal(b1-4)GlcNAc(b1-6)[Gal(b1-3)]GalNAc
Outline: as §1

Gal3S(b1-3)GalNAc = target: Gal3S(b1-3)GalNAc
Outline: as §1

Gal3S(b1-3)GlcNAc = target: Gal3S(b1-3)GlcNAc
Outline: as §1

[29] = target: Gal3S(b1-3)[Fuc(a1-4)]GlcNAc
Outline: as §1

Gal3S(b1-4)Glc = target: Gal3S(b1-4)Glc
Outline: as §1

Gal3S(b1-4)Glc6S = target: Gal3S(b1-4)Glc6S
Outline: as §1

Gal3S(b1-4)GlcNAc = target: Gal3S(b1-4)GlcNAc
Outline: as §1

Gal3S(b1-4)GlcNAc6S = target: Gal3S(b1-4)GlcNAc6S
Outline: as §1

B1: BSR4 (Toxoplasma gondii), Q95NL6 (protein)
chain: MVMMGSMQQRRGGLRSNARQLLAVCMSGVVFFSSGQAVADNLLEGLLHRTLQQQVEVTSRLTVAGSDAKCDFFTPATQDSPPVSGSLTLSKGRMTATFECSATQALSISTIPTNIEQNVCDPKKTTNGTVCQFGANGSAGTEVTLKDLLETDRIVNWKVNEQREESNKSQKWSLELHNEDLPLTDKAFVVGCQATSAARGTESGKTAACKLTVNVEARASSLAENNVVTCAYGKGSNPNPVEVEMSTEKNTLTINCGSDGSLQPTTYAEEYCVADSKDVNRCSTTRFVEIFPKFLKSWWVTETQKRTSATLTIPQTDLPEADQQFLVGCVPKKTAPEDPKKDKESGTETGAPTSCTVLVTVKAASSASHASPTVQILAAASSAAA
glycan array binding signal (z-score) [1]: -0.014 | glycan array binding signal (z-score) [2]: -0.387 | glycan array binding signal (z-score) [3]: -0.12 | glycan array binding signal (z-score) [4]: 0.377 | glycan array binding signal (z-score) [5]: 0.315 | glycan array binding signal (z-score) (Gal(b1-4)Glc): -0.439 | glycan array binding signal (z-score) (Gal(b1-4)Glc6S): 0.38 | glycan array binding signal (z-score) (Gal(b1-4)GlcNAc): -0.355 | glycan array binding signal (z-score) [6]: 0.035 | glycan array binding signal (z-score) [7]: -0.691 | glycan array binding signal (z-score) [8]: 0.038 | glycan array binding signal (z-score) [9]: 0.794 | glycan array binding signal (z-score) [10]: -0.349 | glycan array binding signal (z-score) [11]: 0.292 | glycan array binding signal (z-score) [12]: -0.338 | glycan array binding signal (z-score) [13]: -0.121 | glycan array binding signal (z-score) [14]: -0.142 | glycan array binding signal (z-score) [15]: -0.451 | glycan array binding signal (z-score) [16]: -0.468 | glycan array binding signal (z-score) [17]: 0.288 | glycan array binding signal (z-score) [18]: -0.295 | glycan array binding signal (z-score) [19]: -0.243 | glycan array binding signal (z-score) [20]: -0.265 | glycan array binding signal (z-score) [21]: -0.462 | glycan array binding signal (z-score) [22]: 0.454 | glycan array binding signal (z-score) [23]: -0.712 | glycan array binding signal (z-score) [24]: -0.178 | glycan array binding signal (z-score) [25]: 0.261 | glycan array binding signal (z-score) [26]: -0.306 | glycan array binding signal (z-score) [27]: 0.205 | glycan array binding signal (z-score) [28]: -0.415 | glycan array binding signal (z-score) (Gal3S(b1-3)GalNAc): -0.111 | glycan array binding signal (z-score) (Gal3S(b1-3)GlcNAc): -0.131 | glycan array binding signal (z-score) [29]: 5.04 | glycan array binding signal (z-score) (Gal3S(b1-4)Glc): -0.469 | glycan array binding signal (z-score) (Gal3S(b1-4)Glc6S): -0.039 | glycan array binding signal (z-score) (Gal3S(b1-4)GlcNAc): -0.116 | glycan array binding signal (z-score) (Gal3S(b1-4)GlcNAc6S): 0.22
